Measured data: PubChem BioAssay AID720505 (Drosophila RNAi Screening Center, 2013)
The screen tested about 20,000 reagents; this is a random part of those with a known target gene and a result. Over the whole deposit, about 2,100 (10%) got an active call. 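Raw plate signals without normalisation; calls rest on control-based scores that were not deposited; replicate 2 separates called from uncalled poorly.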 Unmarked entries are inactive. No sequences are given here. The record does not give: the amount of reagent, the time to read-out.

- Aim: 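Fly regulators or components of the CRAC channel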 (primary screen)
- Cell system: Drosophila S2R+ cells
- Reagent: long dsRNA against Drosophila genes
- Conditions: thapsigargin (2 µM) in calcium-free buffer to empty internal stores, then 2 mM calcium added back
- Measurement: 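Fluo-4 signal in 384-well plates read on a FLIPR after thapsigargin (2 µM, calcium-free) store depletion and 2 mM calcium add-back; unnormalised mean endpoint per well; screen run twice, selected wells retested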
- Reading the numbers: calcium signal and retest calcium signal: higher = more calcium entry after store depletion
- Rule for the call: 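Knock-downs counted as hits when calcium entry dropped relative to STIM1 positive and Rho1 negative controls present on each plate; roughly 1500 genes called, with reductions of differing size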
- Calls: active = called as lowering calcium entry; inactive = not called

Gene | PubChem SID | calcium signal, replicate 1 | calcium signal, replicate 2 | retest calcium signal, replicate 1 | retest calcium signal, replicate 2
Hmgcr (GeneID 42803) | SID104196496 | 80.5 (active) | 81.1 | – | –
CG11586 (GeneID 38520) | SID104187995 | 111 | 131 | 92 | 95.5
Smyd4-4 (GeneID 36299) | SID104185748 | 182 | 190 | – | –
CG15741 (GeneID 32137) | SID104199499 | 123 | 82 | – | –
Aplip1 (GeneID 53472) | SID104188489 | 63.9 | 97.2 | – | –
Aplip1 (GeneID 53472) | SID104201294 | 139 | 95.8 | – | –
Nelf-E (GeneID 38982) | SID104190359 | 83.9 | 75.3 | – | –
CG15914 (GeneID 32542) | SID104199531 | 129 | 141 | – | –
CG32985 (GeneID 326244) | SID104182426 | 82.3 | 125 | – | –
ClC-a (GeneID 41428) | SID104194739 | 141 | 129 | – | –
ClC-a (GeneID 41428) | SID104194740 | 139 | 122 | – | –
ClC-a (GeneID 41428) | SID104195934 | 111 | 121 | – | –
CG7884 (GeneID 32914) | SID104199857 | 63.4 (active) | 161 | – | –
CG6041 (GeneID 31527) | SID104198188 | 217 | 154 | – | –
SmydA-1 (GeneID 36581) | SID104186992 | 194 | 162 | – | –
Faa (GeneID 45577) | SID104188243 | 98.2 | 73 | – | –
Orcokinin (GeneID 37806) | SID104183994 | 136 | 220 | – | –

Part of the list above, showing only “calcium signal, replicate 2”.
SmydA-1 (GeneID 36581) [SID104186992]: 162
Faa (GeneID 45577) [SID104188243]: 73

Further entries:
Gene | PubChem SID | calcium signal, replicate 1 | calcium signal, replicate 2 | retest calcium signal, replicate 1 | retest calcium signal, replicate 2
Mipp1 (GeneID 39841) | SID104191015 | 103 | 106 | – | –
Nepl12 (GeneID 41172) | SID104196203 | 98.9 | 95.2 | – | –
Mur18B (GeneID 32912) | SID104199855 | 141 | 116 | – | –
CG31267 (GeneID 318651) | SID104195540 | 114 | 139 | – | –
ETHR (GeneID 42523) | SID104195707 | 148 | 106 | – | –
Jra (GeneID 36057) | SID104187239 | 174 | 137 | – | –
yuri (GeneID 34894) | SID104181245 | 71.1 (active) | 64.6 | – | –
yuri (GeneID 34894) | SID104181246 | 62.1 (active) | 87.2 | – | –
yuri (GeneID 34894) | SID104181735 | 80.5 (active) | 114 | – | –
yuri (GeneID 34894) | SID104181764 | 135 | 160 | – | –
TwdlF (GeneID 40534) | SID104192017 | 138 | 83.6 | – | –
SmydA-5 (GeneID 35538) | SID104184659 | 164 | 214 | – | –
CG15126 (GeneID 50202) | SID104186340 | 177 | 148 | – | –
CG12129 (GeneID 36044) | SID104185897 | 176 | 118 | – | –
Decay (GeneID 42008) | SID104196722 | 128 | 149 | – | –
Ir10a (GeneID 32067) | SID104199270 | 109 | 80.4 | – | –
Ir10a (GeneID 32067) | SID104199271 | 64.1 (active) | 125 | – | –
